Test [1] concerns the target T1, mCherry-fused melanophilin (expressed in HEK293A cells) (mouse) (UniProt Q91V27).
T1 sequence: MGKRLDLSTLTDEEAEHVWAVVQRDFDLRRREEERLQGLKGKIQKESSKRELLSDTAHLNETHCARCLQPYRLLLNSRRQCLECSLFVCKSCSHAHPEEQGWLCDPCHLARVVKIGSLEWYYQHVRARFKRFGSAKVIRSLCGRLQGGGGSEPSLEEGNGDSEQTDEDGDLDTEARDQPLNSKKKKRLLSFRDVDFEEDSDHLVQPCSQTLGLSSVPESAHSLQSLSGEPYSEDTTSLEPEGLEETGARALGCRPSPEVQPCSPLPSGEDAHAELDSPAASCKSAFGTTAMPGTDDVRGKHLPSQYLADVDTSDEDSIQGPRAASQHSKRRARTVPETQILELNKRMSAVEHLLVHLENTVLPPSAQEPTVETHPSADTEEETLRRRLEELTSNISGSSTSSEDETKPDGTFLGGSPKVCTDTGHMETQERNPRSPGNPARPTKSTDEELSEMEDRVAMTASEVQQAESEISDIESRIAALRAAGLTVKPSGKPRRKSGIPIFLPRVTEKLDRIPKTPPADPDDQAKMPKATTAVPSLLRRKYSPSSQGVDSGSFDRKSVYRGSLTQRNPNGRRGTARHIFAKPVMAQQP
Nature of the test: co-IP; visible immunoprecipitation (VIP) assay: HEK293A cells co-transfected with mCherry-fused effector and EGFP-fused exocyst component; lysates precipitated with mCherry-nanobody-bound glutathione-Sepharose beads; EGFP and mCherry fluorescence on beads seen by confocal microscopy.

The chains behind the UniProt entries cited, without tags or fusion partners.
UniProt Q9UPT5: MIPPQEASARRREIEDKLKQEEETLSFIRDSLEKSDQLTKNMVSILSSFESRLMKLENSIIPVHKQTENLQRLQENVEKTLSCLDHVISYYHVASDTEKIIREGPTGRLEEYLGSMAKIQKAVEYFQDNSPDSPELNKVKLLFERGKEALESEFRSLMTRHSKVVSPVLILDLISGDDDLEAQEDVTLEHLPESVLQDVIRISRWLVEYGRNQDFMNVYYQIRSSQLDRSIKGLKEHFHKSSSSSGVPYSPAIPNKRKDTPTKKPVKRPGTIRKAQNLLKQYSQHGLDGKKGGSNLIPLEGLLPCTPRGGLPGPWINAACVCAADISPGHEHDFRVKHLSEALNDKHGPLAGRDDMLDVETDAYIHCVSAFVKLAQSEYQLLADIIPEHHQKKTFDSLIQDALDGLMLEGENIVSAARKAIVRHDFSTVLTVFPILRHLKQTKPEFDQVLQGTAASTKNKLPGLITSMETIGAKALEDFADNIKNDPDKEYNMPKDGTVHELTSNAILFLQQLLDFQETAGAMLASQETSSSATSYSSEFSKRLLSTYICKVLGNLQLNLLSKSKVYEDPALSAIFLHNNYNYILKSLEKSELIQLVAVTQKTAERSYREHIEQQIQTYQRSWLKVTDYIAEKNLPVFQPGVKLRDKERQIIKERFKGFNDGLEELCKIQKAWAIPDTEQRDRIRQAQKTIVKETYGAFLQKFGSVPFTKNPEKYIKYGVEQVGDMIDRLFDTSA
UniProt Q6KAR6: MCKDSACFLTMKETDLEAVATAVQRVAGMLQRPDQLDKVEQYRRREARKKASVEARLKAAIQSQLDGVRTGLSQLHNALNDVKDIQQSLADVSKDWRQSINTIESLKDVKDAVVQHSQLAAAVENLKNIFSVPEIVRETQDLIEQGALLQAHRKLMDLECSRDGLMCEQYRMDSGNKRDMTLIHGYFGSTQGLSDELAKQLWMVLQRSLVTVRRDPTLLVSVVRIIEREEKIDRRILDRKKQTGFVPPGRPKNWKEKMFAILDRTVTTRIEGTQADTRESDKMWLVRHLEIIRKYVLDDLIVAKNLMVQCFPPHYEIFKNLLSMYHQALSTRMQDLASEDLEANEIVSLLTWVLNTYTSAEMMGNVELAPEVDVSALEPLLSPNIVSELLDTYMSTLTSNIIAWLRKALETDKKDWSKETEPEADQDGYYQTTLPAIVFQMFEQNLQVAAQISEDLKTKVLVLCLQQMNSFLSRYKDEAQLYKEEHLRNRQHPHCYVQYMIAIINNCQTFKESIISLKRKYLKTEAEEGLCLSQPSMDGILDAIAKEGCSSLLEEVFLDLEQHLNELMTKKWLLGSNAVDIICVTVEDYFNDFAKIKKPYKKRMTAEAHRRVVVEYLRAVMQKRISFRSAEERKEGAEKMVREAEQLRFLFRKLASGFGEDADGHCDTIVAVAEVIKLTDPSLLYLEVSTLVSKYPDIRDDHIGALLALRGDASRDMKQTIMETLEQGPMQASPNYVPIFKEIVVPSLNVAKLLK
UniProt Q3TPX4: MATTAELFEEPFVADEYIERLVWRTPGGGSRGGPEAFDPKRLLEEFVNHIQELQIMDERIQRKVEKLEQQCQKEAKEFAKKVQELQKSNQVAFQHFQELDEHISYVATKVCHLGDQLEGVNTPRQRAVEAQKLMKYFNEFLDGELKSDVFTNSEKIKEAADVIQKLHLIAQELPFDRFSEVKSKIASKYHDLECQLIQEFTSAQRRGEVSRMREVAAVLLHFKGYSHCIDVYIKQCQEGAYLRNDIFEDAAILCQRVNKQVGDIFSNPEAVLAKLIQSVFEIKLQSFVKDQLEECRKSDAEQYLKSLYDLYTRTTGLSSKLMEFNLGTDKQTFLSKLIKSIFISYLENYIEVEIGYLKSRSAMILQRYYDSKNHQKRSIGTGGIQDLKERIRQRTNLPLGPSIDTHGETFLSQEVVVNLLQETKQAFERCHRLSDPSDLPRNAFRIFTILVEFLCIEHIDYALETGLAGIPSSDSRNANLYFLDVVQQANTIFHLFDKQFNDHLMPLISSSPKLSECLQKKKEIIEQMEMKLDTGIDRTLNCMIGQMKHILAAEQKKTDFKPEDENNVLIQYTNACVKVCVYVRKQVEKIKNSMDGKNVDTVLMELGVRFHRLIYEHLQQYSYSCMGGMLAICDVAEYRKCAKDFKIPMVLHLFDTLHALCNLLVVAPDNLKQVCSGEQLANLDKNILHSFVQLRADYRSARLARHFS
UniProt Q96A65: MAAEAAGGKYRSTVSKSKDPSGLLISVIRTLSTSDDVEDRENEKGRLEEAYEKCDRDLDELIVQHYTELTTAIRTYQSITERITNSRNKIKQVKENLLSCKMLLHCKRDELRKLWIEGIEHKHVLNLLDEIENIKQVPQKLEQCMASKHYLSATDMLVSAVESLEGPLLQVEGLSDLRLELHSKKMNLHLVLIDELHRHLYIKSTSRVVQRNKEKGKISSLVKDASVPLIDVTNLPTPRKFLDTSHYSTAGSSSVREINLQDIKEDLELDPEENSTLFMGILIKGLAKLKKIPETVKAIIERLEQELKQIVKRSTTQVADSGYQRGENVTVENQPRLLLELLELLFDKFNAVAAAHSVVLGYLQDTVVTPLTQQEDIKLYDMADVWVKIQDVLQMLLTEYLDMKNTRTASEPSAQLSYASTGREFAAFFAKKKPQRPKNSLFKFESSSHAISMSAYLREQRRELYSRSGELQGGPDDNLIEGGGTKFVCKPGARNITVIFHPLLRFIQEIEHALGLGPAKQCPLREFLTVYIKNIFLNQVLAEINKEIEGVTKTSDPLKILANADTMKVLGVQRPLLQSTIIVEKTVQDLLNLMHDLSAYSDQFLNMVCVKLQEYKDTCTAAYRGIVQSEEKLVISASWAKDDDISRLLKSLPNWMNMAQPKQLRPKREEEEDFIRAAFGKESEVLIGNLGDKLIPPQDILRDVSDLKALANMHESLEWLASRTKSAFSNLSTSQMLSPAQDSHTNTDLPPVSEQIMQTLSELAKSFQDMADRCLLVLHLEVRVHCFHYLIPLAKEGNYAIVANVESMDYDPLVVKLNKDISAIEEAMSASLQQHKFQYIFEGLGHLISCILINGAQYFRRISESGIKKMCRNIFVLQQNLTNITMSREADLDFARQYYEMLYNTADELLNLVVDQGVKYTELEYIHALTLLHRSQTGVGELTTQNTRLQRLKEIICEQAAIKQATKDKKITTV
UniProt Q9EQZ7: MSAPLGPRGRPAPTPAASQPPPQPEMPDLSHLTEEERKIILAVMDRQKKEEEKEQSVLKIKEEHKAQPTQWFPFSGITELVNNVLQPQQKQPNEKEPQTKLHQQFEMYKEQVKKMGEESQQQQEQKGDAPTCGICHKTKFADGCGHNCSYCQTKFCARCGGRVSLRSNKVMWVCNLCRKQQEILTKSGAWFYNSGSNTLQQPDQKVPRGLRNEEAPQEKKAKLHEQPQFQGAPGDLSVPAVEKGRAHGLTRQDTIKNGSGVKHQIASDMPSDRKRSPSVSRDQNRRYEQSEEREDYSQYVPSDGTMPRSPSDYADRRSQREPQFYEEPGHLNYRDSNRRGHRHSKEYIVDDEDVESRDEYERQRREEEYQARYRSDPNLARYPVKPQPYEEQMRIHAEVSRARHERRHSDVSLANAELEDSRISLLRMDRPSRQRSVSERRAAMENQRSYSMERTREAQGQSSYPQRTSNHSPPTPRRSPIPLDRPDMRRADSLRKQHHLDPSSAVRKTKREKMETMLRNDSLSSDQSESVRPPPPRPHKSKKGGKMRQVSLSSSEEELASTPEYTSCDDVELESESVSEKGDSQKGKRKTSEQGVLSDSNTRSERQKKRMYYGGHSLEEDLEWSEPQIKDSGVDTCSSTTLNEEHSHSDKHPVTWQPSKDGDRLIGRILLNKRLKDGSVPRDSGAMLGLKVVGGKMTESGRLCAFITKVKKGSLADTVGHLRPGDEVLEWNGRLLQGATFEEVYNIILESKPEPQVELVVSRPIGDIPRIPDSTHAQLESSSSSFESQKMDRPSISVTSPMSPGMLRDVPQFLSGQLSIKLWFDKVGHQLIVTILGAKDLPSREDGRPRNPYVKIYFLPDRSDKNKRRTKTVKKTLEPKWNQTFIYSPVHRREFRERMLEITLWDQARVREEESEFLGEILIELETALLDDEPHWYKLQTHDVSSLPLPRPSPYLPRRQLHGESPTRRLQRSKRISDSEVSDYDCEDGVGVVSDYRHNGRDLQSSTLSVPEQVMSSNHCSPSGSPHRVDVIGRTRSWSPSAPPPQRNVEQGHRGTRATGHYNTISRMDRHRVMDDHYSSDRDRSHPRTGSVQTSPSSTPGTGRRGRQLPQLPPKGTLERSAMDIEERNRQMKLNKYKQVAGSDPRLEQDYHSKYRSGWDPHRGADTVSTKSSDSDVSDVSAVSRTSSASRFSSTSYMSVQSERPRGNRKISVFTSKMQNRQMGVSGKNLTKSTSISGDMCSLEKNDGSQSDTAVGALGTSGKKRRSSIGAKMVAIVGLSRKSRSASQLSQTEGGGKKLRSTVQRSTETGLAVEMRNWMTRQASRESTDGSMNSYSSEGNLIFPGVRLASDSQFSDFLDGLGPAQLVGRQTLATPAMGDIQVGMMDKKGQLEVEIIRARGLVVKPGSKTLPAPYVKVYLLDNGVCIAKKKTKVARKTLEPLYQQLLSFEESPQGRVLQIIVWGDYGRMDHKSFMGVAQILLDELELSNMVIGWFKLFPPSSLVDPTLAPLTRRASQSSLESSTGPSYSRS

Test [2] addresses T2, melanophilin (endogenous, MIN6 cells) (mouse (endogenous in MIN6)) (UniProt Q91V27).
T2 sequence: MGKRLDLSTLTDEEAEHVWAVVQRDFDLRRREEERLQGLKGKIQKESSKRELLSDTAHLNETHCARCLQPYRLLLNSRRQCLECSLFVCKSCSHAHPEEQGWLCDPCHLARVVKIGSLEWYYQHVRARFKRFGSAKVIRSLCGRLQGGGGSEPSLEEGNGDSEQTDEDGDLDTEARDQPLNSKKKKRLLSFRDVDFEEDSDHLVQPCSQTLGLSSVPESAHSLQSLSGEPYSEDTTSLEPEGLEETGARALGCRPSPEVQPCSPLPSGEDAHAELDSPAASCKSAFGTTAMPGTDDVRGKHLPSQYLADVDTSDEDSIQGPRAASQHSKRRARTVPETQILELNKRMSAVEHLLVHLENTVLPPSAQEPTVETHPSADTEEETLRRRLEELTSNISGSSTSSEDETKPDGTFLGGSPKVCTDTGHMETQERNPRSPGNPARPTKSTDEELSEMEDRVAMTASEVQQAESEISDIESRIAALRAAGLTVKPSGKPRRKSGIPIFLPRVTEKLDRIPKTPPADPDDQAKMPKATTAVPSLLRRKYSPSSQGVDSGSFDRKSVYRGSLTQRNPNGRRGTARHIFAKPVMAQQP
Nature of the test: co-IP; endogenous proteins; MIN6 cell extracts immunoprecipitated with rabbit anti-melanophilin antibody or control IgG and immunoblotted (Figure 3C; control siRNA of Figure 4B). In general terms: A western blot detects proteins with antibodies after separation by electrophoresis.

Test [3] concerns the target T3, mCherry-fused exophilin-8 (expressed in HEK293A cells) (mouse) (UniProt Q8K3I4).
T3 sequence: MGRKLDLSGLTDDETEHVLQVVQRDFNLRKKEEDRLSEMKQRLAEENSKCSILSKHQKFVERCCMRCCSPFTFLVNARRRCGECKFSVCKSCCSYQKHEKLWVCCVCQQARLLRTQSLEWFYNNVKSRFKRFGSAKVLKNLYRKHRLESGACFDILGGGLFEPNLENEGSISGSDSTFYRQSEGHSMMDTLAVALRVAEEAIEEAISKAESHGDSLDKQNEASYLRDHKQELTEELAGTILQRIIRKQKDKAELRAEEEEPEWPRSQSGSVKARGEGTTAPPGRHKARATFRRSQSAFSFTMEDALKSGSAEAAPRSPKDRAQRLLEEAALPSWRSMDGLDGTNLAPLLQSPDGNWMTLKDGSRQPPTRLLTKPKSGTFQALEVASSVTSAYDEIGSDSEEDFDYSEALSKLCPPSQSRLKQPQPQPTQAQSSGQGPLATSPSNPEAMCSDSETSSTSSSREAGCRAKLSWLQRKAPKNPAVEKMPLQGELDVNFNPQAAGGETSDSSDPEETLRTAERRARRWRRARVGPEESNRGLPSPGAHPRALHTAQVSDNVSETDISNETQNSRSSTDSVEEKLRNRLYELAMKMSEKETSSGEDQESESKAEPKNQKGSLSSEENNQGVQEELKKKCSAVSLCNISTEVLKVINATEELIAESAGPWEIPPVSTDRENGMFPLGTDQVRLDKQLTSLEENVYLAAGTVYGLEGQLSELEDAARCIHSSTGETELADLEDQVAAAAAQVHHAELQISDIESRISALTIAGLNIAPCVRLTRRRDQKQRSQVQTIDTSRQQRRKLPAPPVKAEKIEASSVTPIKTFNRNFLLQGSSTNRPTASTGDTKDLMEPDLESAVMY
Nature of the test: co-IP; visible immunoprecipitation (VIP) assay: HEK293A cells co-transfected with mCherry-fused effector and EGFP-fused exocyst component; lysates precipitated with mCherry-nanobody-bound glutathione-Sepharose beads; EGFP and mCherry fluorescence on beads seen by confocal microscopy.

Test [4] deals with T4, FLAG-tagged exophilin-8 (expressed in MIN6 cells) (mouse) (UniProt Q8K3I4).
T4 sequence: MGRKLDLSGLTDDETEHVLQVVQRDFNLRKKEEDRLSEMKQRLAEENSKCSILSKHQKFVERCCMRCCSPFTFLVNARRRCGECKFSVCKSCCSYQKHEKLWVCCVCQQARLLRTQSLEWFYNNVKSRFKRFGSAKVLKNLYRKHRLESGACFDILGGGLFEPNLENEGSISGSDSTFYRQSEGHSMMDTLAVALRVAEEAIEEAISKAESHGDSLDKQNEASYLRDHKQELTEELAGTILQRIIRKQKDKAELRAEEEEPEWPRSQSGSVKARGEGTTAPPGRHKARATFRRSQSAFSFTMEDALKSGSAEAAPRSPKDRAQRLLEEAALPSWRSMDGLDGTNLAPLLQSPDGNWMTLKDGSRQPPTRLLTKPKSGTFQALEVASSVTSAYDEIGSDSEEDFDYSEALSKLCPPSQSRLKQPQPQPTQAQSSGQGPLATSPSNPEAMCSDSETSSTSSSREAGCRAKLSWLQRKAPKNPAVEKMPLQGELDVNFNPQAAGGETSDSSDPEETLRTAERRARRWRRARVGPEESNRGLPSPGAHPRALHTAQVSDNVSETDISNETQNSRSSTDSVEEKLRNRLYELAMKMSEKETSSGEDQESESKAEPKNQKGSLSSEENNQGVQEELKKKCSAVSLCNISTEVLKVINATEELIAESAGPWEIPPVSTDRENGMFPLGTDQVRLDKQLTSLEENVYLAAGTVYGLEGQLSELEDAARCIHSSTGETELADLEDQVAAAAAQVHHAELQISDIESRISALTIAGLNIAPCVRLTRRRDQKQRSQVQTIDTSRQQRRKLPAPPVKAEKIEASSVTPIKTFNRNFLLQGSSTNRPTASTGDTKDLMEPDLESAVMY
Nature of the test: co-IP; MIN6 cells expressing FLAG-tagged melanophilin or exophilin-8; immunoprecipitated with anti-FLAG antibody; immunoblotted for endogenous proteins.

These are yes or no findings as the source states them, for the method shown. Binding seen in cells or lysates may run through a third protein. Some entries that bind do so weakly or less than the wild type. For some assays here: Where a sequence is shown, tags or fusion partners need not be part of it.

On to “EGFP-fused EXO70 (human, expressed in HEK293A cells) (from UniProt Q9UPT5 1-735)”, for which, in test [1], the binding entry was “binds”. Turning to “SEC6 (endogenous, MIN6 cells) (from UniProt Q6KAR6 1-755)”, in test [2], the binding result was “binds”.

“SEC10 (endogenous, MIN6 cells) (from UniProt Q3TPX4 1-708)”: in test [2], the binding result is “binds”. As for “EGFP-fused SEC8 (human, expressed in HEK293A cells) (from UniProt Q96A65 1-974)”, the binding entry in test [3] was “binds”. In the case of “RIM2 (endogenous, MIN6 cells) (from UniProt Q9EQZ7 1-1530)”, the binding result in test [4] is “binds”.

The record behind these values is article PMC9988257.
